This is one part of the list. Most entries show no effect beyond the scatter of the controls.
Compound: CN[C@@H]1C[C@H]2O[C@@](C)([C@@H]1OC)n1c3ccccc3c3c4c(c5c6ccccc6n2c5c31)C(=O)NC4 [staurosporine]
Test: log2 fold change of tryptic peptide abundance, ligand vs vehicle (limited proteolysis) (log2 ratio); higher = more trypsin-susceptible (destabilized)
Conditions: ligand concentration: 20 uM; sample: K562 cleared lysate; digestion: 4 min, 22 C (HT-PELSA RT4min, Orbitrap Astral)

Amino acid sequences for entries named in this document (tags omitted). A change or cut given only in a name is not applied to a line headed by its entry.
UniProt Q8N543: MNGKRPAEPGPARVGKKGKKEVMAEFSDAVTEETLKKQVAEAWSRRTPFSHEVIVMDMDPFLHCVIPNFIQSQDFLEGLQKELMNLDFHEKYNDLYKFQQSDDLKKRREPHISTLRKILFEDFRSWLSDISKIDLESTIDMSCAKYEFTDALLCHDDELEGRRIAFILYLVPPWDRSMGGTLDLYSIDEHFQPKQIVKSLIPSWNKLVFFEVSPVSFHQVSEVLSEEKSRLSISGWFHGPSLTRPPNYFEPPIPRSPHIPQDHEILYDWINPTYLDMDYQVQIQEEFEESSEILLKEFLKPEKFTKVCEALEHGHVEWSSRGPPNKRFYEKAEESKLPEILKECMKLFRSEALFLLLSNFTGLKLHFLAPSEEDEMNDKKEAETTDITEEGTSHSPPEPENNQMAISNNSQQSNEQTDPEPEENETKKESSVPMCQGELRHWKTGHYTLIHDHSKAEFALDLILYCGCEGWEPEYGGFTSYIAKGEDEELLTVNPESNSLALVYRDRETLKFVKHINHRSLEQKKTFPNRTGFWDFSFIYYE
UniProt Q8NEM2: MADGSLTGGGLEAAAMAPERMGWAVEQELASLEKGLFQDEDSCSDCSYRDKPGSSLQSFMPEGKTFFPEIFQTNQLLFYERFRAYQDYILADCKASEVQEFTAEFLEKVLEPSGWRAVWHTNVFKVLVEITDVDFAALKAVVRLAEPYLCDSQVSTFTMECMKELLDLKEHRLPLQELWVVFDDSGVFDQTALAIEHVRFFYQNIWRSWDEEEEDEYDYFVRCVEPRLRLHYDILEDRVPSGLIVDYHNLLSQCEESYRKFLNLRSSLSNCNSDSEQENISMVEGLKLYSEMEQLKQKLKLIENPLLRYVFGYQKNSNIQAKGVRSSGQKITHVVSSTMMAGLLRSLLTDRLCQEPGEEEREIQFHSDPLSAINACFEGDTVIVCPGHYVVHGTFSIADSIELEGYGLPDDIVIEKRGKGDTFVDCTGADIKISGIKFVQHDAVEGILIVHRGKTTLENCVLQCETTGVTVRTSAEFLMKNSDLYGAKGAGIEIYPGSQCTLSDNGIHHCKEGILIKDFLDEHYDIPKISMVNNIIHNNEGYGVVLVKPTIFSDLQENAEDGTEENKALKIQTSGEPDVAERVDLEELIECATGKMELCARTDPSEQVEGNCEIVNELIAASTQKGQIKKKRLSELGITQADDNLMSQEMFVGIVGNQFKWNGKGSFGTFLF
UniProt Q8NBE8: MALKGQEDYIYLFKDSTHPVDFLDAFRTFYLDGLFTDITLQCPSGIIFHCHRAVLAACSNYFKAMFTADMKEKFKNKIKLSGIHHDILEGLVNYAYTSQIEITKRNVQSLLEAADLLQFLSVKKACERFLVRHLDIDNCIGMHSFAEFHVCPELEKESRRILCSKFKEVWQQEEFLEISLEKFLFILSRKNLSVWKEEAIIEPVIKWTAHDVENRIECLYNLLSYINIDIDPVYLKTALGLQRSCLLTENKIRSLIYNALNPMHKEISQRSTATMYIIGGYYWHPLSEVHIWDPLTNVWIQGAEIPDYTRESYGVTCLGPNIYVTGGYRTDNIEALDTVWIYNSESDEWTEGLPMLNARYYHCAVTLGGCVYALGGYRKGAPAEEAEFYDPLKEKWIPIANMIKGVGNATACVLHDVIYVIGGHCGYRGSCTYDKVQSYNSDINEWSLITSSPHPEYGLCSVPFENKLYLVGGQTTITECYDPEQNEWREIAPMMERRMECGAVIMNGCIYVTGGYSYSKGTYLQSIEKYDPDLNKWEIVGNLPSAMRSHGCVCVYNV
UniProt Q8NHG7: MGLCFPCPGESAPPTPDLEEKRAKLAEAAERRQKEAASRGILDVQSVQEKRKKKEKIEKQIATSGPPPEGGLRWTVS
UniProt Q8NHH9: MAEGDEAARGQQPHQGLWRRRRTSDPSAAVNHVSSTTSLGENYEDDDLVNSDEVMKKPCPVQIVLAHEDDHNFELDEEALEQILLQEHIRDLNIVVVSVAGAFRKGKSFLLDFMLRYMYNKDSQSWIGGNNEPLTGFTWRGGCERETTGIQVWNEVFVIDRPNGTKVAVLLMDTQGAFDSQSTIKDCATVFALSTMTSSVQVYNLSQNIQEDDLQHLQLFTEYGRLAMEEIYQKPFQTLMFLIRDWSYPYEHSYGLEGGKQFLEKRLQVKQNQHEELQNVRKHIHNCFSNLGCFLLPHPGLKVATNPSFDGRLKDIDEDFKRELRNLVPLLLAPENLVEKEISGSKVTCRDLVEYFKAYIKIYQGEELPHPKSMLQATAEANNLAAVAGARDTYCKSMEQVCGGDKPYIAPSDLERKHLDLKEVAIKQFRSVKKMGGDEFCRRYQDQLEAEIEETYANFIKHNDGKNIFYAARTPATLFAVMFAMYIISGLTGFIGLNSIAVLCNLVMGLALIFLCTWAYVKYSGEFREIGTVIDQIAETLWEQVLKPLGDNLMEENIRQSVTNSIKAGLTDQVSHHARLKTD
UniProt Q8NG08: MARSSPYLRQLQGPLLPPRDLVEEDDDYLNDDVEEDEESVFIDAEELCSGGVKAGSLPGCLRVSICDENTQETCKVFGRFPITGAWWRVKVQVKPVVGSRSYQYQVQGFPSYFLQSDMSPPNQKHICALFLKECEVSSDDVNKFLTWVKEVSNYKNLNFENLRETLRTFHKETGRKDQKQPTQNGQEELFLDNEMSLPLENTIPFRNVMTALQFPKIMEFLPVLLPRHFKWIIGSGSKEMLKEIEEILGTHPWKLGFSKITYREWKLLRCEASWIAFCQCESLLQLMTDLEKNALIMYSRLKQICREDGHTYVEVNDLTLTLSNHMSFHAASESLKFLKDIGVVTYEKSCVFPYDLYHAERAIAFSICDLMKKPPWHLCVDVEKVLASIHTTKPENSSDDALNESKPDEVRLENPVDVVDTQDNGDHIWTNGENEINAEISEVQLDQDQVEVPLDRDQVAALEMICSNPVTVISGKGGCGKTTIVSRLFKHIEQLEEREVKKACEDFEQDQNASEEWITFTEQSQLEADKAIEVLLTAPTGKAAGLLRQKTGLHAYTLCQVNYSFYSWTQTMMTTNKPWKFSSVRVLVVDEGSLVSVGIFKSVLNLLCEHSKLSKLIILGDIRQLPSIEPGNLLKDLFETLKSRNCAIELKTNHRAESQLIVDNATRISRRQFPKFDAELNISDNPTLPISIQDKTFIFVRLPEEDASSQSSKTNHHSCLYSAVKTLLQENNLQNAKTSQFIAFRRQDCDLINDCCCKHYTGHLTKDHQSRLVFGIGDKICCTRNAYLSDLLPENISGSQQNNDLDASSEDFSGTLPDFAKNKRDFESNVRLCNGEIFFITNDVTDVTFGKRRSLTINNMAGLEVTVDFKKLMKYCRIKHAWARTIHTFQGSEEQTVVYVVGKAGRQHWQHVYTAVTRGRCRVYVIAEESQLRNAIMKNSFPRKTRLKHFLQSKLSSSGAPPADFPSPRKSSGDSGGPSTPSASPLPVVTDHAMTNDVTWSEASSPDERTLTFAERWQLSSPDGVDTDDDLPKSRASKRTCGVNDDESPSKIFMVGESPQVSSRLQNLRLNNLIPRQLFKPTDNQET
UniProt Q8N5H3: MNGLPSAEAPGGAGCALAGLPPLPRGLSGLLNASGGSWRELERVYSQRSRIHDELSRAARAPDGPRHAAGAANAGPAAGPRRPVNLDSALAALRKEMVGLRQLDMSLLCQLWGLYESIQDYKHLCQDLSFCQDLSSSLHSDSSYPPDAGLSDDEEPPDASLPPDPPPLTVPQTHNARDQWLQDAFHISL

| Target | log2 fold change |
| --- | --- |
| OGFOD1 (peptide sequence: RPAEPGPAR, peptide start residue: 5) (UniProt Q8N543) | -0.163 |
| SHCBP1 (peptide sequence: EGILIKDFLDEHYDIPK, peptide start residue: 512) (UniProt Q8NEM2) | 0.304 |
| UniProt Q8NBE8 (peptide sequence: EIAPMMERR, peptide start residue: 490) | -0.0253 |
| SVIP (peptide sequence: GILDVQSVQEK, peptide start residue: 40) (UniProt Q8NHG7) | 0.461 |
| ATL2 (peptide sequence: IYQGEELPHPK, peptide start residue: 362) (UniProt Q8NHH9) | 0.444 |
| HELB (peptide sequence: TCGVNDDESPSK, peptide start residue: 1040) (UniProt Q8NG08) | 0.476 |
| UniProt Q8N5H3 (peptide sequence: RPVNLDSALAALRK, peptide start residue: 82) | -0.0913 |

Reference: the supplement of paper PMC12819154, “High-throughput peptide-centric local stability assay extends protein–ligand identification to membrane proteins, tissues and bacteria” (Nature Structural & Molecular Biology, 2025)
